Results taken from patent US8778995B2, “Use of hydroxyoleic acid and related compounds in the manufacture of drugs” (Universitat de les Illies Balears, priority 2001, dated 2014).
Some of these results come from one statement about several compounds together. For some of these results: For at least one compound, name, drawing or mass did not settle the structure.

Key:
G-proteins = assay: Binding of [35S]GTPγS to membranes of NIH 3T3 cells transfected with the rat adrenoceptor α2A/D (activity of G-proteins); format: biochemical; details: 200 μM
From the text: Hydroxyoleic acid and related compounds are capable of modulating the activity of G-proteins, measured by the binding of [^35S] GTPγS (FIG. 5).
The analogs of 2-hydroxyoleic produce an effect similar to that of 2-hydroxyoleic acid.

[1] = Body weight of rats in chronic treatment; format: in vivo, Sprague-Dowley rat; details: seventh day of treatment, free access to food and water
From the text: Rats treated with these molecules lost body weight during chronic treatments (from 5 to 17 days). In these experiments, rats treated with 2-hydroxyoleic acid or its analogs, in particular aminoleic acid, had free access to food and water, in the same way as the control group of treated rats (FIG. 11). In these conditions there was a progressive decrease in the rats' body weight starting from the first day of treatment, up to 17 grams on the seventh day of treatment (5% of the normal body weight of a Sprague-Dowley rat aged 2-3 months). […] Similar experiments carried out on adult mice, for periods of up to 28 days with 2-hydroxyoleic acid, show reductions in body weight from 15% to 25%, relative to control mice (treated with vehicle).
The animals (Sprague-Dowley rats) had free access to food and water at any time.

Row | Structure (SMILES) | inhibition in the activity of G-proteins (G-proteins) | decrease in body weight [1]
1 | CCCCCCCC/C=C\CCCCCCCC(=O)O [Oleic acid, oleic (cis-9-octadecenoic)acid] | 75-84% | 
2 | CCCCCCCC/C=C\CCCCCCC(N)C(=O)O (stereo not drawn) [Aminoleic acid, 2-amino-oleic (2-amino-cis-9-octadecenoic)acid] |  | up to 17 grams
3 | CCCCCCCC/C=C\CCCCCCC(O)C(=O)O (stereo not drawn) [2-hydroxyoleic acid, cis-2-hydroxy-9-octadecenoic acid] | 75-84% | up to 17 grams
